Screen size: about 31,000 sequences; about 1,400 (4.5%) were called active.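 How the source made its calls: active means median seed-adjusted z-score above 1 or below -1; inactive means the rest.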 The list shows a part of the results.
assay: Novel Modifiers of Survival Motor Neuron (SMN) Protein: Gene Identification via Genome-wide siRNA Screen; settings: HEK293T SMN2-luciferase reporter, siRNA knockdown, 72 h; actives lie on both sides;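 further: luminescence tracks full-length SMN protein made from the SMN2 reporter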
How it was run: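 Luciferase signal, proportional to full-length SMN made from an SMN2 cDNA reporter in stable HEK293T cells, was read 72 h after siRNA reverse transfection. Values were expressed as MAD scores after non-targeting-control normalization and log10 conversion; seed analysis flagged off-targets.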

Sequence	median seed-adjusted z-score
GGUCUUUAUUCGGAAGCGATT against ZNF525	inactive: 0.134
GGAACAAGAGAAGAGGUUATT against DDX41	inactive: -0.611
GCAUAGAAUGUCAAGCUAATT against RBX1	inactive: -0.000499
GCGUGGUGCAGUUCUGUGATT against ASB2	inactive: -0.825
GGACACCAAUGGAGACAUATT against TRIM3	inactive: -0.215
GCCUGGAAAUUGUCUACAATT against ATP4B	inactive: -0.609
GCAUCGCCGAAGAUAGAUUTT against NUP153	inactive: -0.847
GGAUCAAGAUGCAAUUGAUTT against TRHDE	inactive: 0.429
CUAUAACAUCGAAGACUUUTT against ARNT2	inactive: -0.244
GAGCUGCAUUAUGAAAUUATT against CCL18	inactive: 0.169
CCCGAUGCCGGAACAAGAATT against JDP2	inactive: -0.202
GGACGGUUCUUGUUCCAGUTT against PDIA5	inactive: 0.989
GUGCUUCAGUAGGUAUGUATT against ASNS	active: -1.1
GGAACUAGAUUACUUUGCUTT against PGK2	inactive: -0.127
GCACUUGGAUAGACAACAATT against SEC24D	inactive: 0.529
GAUUUUUACCUUACGAUCATT against GPN3	inactive: -0.796
CGAAUUCCUCGUCAACGAATT against HOXD12	inactive: -0.18
GGGUACCUCUCUGACAACATT against SLC25A10	inactive: -0.571
GGAACCAAAUGCAAGGUUATT against GZMK	inactive: -0.303
GCCUGUAUAUGAGAGCCUUTT against OTUD7B	inactive: 0.226
GAAGAUGAGUUCUACCAGATT against VPS72	inactive: 0.572
UCCUUAUCAUGAACCUGCATT against CHRNA10	inactive: 0.521

Sequence	median seed-adjusted z-score
GGCAAACCGUUGGAACCAATT against AFF1	inactive: -0.0394
UCCUCAACGUGGAUGAGAATT against HTR3A	inactive: 0.37
CAACCUUGCAGACAACGUATT against CEBPG	inactive: -0.561
GGGCAAAAUUCUCAGCGAATT against CIT	inactive: -0.0585
CAGUUGUUGUGGUUGAGAATT against STX2	inactive: 0.442
CCGAAGCUGUGGAGGUGAATT against HTR5A	inactive: -0.0687
GGUCACGUCUGUUACCUGATT against GBA3	inactive: 0.246
AGAACGUGGUCAUCAAAGUTT against ZC3H3	inactive: -0.622
GGCUUCAGGUUAUAGUCAATT against OTX2	inactive: -0.00351
GCUCCUUAAGGAUAACUAATT against NTRK2	inactive: 0.103
ACUACCUUCUCAUCAAGGATT against CCL19	inactive: 0.0364
GACCAGACAUCAAGCUUUATT against PARG	inactive: 0
GGAAUAUUCUUCAGCUACATT against ZBTB24	inactive: -0.156
CGUGAAAAGUGAGCUAGAUTT against JDP2	inactive: -0.202
GGUCUGAUCCUGAACAACATT against ASPN	inactive: -0.0432
AGCAAGAGAUUGACAAAAATT against LETM1	inactive: -0.491
GUUGGUUUCUUCAAACGGATT against ITGAL	inactive: 0.537
ACAGAACCUUCGACAAGUATT against GCGR	inactive: -0.224
GCAUCAACCAAGACCUGUATT against CSGLCA-T	inactive: 0.146
AGAAAUUUGUCACCUAUUUTT against RGL4	inactive: 0.201
GCUCCUAUAACUCAAGUAATT against GPR158	inactive: 0.198
GGAUAGAAUCUCCACUGAATT against RAE1	inactive: 0.929

Sequence	median seed-adjusted z-score
CAACAAGAAUAAUGACGAATT against BCHE	inactive: 0.117
GCAUUUCUUGGGUUGGUGATT against GABPA	active: 1.43
GAACAUCUCCGCAACAAGATT against VAMP8	inactive: -0.184
CCUCCGAUGUUGUCCUAGATT against GNL3	inactive: 0.572
GGAUUAUUUCUGGUUCCUATT against ATP8A2	inactive: 0
GGAUAUCCGUGAUUGUUCATT against BNIP1	inactive: 0.259
CUCCUACGCUCUAUACAAATT against TRPM8	inactive: 0.405
GCCAGAGUCCUGAUGCACATT against GPR31	inactive: -0.0381
CCAGGACCUGACUCCUUUATT against GSG2	inactive: 0.804
AGACGGCUCAGAUAGCAUATT against HMBS	inactive: 0.422
CGAAUGAUGUGAAGCAUCATT against PRKX	inactive: 0.0341
CGUUCCAGGUUUUUGUAUUTT against CD244	inactive: 0
CAAUGAUUCUUGUUGGUAATT against RAP1B	inactive: -0.0262
GGUCGUGAAUUGUACAGCATT against HERC1	inactive: 0.168
GUUGUUCUCAGGUCUGAAUTT against ACOT2	inactive: 0.578
GGAGAUUGGGAGCAACAAATT against NLRP11	inactive: 0.181
GAUGGAUACCUCUACCUGATT against ZNF593	inactive: 0.215
AGGUGAAUGCGCUCACUUATT against ELMO3	inactive: -0.0898
GACCAAGACUCAAUCCAUUTT against SLC1A2	inactive: 0.249
GGGAUGCUCUUCACAGCUATT against SEMA6B	inactive: 0.311
GAAUGACUGUCACCGCAUATT against DCP1A	inactive: 0.361
GAUUAUCGAGGUUAAAAAUTT against LONP1	inactive: -0.291

Another view of some results above:
Sequence | median seed-adjusted z-score
GCCUGGAAAUUGUCUACAATT against ATP4B | inactive: -0.609
GCAUCGCCGAAGAUAGAUUTT against NUP153 | inactive: -0.847
GGAUCAAGAUGCAAUUGAUTT against TRHDE | inactive: 0.429
CUAUAACAUCGAAGACUUUTT against ARNT2 | inactive: -0.244
GAGCUGCAUUAUGAAAUUATT against CCL18 | inactive: 0.169

(further entries)

Sequence	median seed-adjusted z-score
GGAGCGAAUGAAUACCCUUTT against DYNC1H1	inactive: 0
GCAUUCAUCACUUCGAAAATT against BNC2	inactive: -0.0556
GGAUAGUGAUGCCUACGAATT against F11R	inactive: -0.329
GCAUCUGCAAGCUCAUUGATT against NOD2	inactive: 0.129
GCAUUGAUCAAUUUGCAAATT against LSM1	inactive: 0
CGCACAUAUUUCAGUCUGATT against ZNF468	inactive: -0.0435
CCCUAGAGCCGAAAAGAAATT against NKX2-5	inactive: 0.719
CGCAAUCGUUUUUACCAAATT against MORC3	inactive: 0.245
GGACUCUACUGCUAAAGUATT against TBC1D8B	inactive: -0.985
CCACAAUGCCGGUAUCAGUTT against DHRS13	inactive: 0.192
GGAAGGCUAUUCAAAAUAATT against SERBP1	inactive: 0.143
CCAAGAUUCCUGACACCAATT against MAP4K2	inactive: -0.439
GGCUAUCUGGAAAUCAGUUTT against GTF2IRD2	inactive: 0.904
CAAUGAAGAUGAGCCGUAATT against FXYD2	inactive: -0.383
GGCAGUUUUUGGUAGCUCUTT against ETV1	inactive: 0.167
GCAUCCAGUGCGUUAGUAATT against USP6	inactive: -0.285
GCAUGUAGCUGAGAACAAUTT against PCDHGB3	inactive: 0.275
GACAGAAGAUCAAUAUGAATT against ETS2	inactive: 0.636
AGAAGAUACAGACCCGCAATT against LOC650864	inactive: 0.214
GGAUUCUAACAGUUUUAGATT against AGXT2L1	inactive: 0.285
GGAUAUCUGUCAUUCAGCATT against MLC1	inactive: -0.284
GCUUCGUGCUAGAUAAAGATT against NOP14	inactive: -0.344

Reformatted: results already given
GGAGCGAAUGAAUACCCUUTT against DYNC1H1
  median seed-adjusted z-score: inactive: 0
GGCUAUCUGGAAAUCAGUUTT against GTF2IRD2
  median seed-adjusted z-score: inactive: 0.904
GGAUUCUAACAGUUUUAGATT against AGXT2L1
  median seed-adjusted z-score: inactive: 0.285

Additional records.

Sequence	median seed-adjusted z-score
GGAACAGGCUAUCAGAACATT against TTC8	inactive: 0
GCAUUGCUGUCUCUAGGUUTT against SATB1	inactive: 0
CAGGUACCCGGAAAUUAAATT against SCNN1A	inactive: -0.137
CCACCAUUGGGUUAACUGUTT against ABO	inactive: 0
GUACUACAGUUUAUUCGCATT against PARP4	inactive: -0.226
CGAAACAGCUGUUACCGUATT against AKAP12	inactive: -0.104
GAUAGACCAUCUACACCUATT against SNX16	inactive: -0.111
GCAUGGAGCUUACACCUGATT against DPM2	inactive: -0.419
GCACUGCGUAUGAAGAUUATT against HNRNPR	inactive: 0.308
AGAUAGAUGGUGAAAGAGATT against GPR39	inactive: 0.0998
CAGUCGAACUCGUGAAUGATT against UBE2Q1	inactive: -0.241
CCAUGGAUAUAUCGGUUAATT against LRRTM4	inactive: 0
GCGCAAUAGGGAUUAUGCATT against SLC6A16	inactive: -0.461
UAAAAGCAGUGUCGACUUATT against EXOSC7	inactive: 0.0148
CAUUGACUGGAAUAAGCUATT against RPS6KA1	inactive: 0.194
GCUCUAAUGAGCAACAGUATT against POU2F1	inactive: 0.317
GGUGAAACCUGACCGCAAATT against MTNR1A	inactive: 0
GGAAAAGUAUCUAAAGGAATT against CHKA	inactive: -0.558
UGAACACUACGAACUCAAATT against CDH15	inactive: 0
CCUACUCAAUGUGAUAUAUTT against ADAMDEC1	inactive: 0.0106
